These are yes or no findings as the source states them, for the method shown. Binding seen in cells or lysates may run through a third protein. Some entries that bind do so weakly or less than the wild type.
Legend:
Experiment in all cases: pull-down
[1] = target: GST-CSRP3-G78V fusion protein (human) (UniProt P50461)
[2] = target: GST-CSRP3-W140C fusion protein (human) (UniProt P50461)
[3] = target: GST-CSRP3-WT fusion protein (human) (UniProt P50461)

By UniProt entry, the sequences of proteins in these tests, tags left out. Where a name states a change or a piece, a line headed by the entry shows the natural chain unless it says otherwise.
UniProt P50461: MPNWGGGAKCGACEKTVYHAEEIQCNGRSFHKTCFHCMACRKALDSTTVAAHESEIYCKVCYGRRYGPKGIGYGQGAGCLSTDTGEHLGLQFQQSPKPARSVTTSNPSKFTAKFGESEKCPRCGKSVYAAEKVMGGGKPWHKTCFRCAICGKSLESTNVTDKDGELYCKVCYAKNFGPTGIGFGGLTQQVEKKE
UniProt P35609: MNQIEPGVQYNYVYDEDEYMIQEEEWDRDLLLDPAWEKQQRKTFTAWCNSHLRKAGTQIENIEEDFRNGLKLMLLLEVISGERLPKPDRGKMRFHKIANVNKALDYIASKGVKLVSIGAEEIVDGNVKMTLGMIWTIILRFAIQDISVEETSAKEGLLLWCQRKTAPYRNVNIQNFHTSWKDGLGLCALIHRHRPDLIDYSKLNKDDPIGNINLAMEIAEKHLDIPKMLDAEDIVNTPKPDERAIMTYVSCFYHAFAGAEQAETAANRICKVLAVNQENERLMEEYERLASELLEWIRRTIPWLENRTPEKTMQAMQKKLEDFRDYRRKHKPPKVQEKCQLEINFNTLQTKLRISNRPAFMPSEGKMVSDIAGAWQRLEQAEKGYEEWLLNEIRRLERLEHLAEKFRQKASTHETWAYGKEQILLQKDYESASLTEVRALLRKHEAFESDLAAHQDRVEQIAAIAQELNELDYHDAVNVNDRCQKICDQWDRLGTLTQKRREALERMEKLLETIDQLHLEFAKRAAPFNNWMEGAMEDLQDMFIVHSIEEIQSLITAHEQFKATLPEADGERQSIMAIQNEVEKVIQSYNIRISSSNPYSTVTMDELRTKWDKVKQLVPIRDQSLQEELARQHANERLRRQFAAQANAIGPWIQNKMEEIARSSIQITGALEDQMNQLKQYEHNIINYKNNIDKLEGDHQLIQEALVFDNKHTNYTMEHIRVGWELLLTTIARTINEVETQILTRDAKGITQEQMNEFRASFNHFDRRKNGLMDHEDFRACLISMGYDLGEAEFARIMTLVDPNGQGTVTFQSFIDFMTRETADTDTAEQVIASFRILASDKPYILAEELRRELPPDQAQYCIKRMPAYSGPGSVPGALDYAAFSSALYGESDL

Measured: binding

ACTN2 (c-myc tagged) (from UniProt P35609 1-894)
binds: all assays above

— paper doi:10.1101/2021.11.05.21265852
